Reference: patent US6896884B2, “Human chitinase, its recombinant production, its use for decomposing chitin, its use in therapy or prophylaxis against infection diseases” (Universiteit va Amsterdam, priority 1995, dated 2005)
Some of these results come from one statement about several compounds together. Some compounds share one range, which may span the group rather than tell each member.

Test: specific activity with the artificial substrate 4-methylumbelliferyl-chitotrioside
Assay type: biochemical
Conditions: purified enzyme

Substance | specific activity
chitozyme 39: recombinant human chitotriosidase isozyme of 39 kDa, encoded by chi.39 cDNA (SEQ ID NO:6), produced by transfected COS cells | 6 to 6.5 mmol substrate hydrolysis/mg protein×hour
chitozyme 50: recombinant human chitotriosidase isozyme of 50 kDa, encoded by chi.50 cDNA (SEQ ID NO:4), produced by transfected COS cells | 6 to 6.5 mmol substrate hydrolysis/mg protein×hour
tissue chitotriosidase: chitotriosidase purified from Gaucher disease spleen, isoform not specified | 6 to 6.5 mmol substrate hydrolysis/mg protein×hour
